## Microarray screen: hit calls

Source: the ROBIN nucleic acid binder screens (doi:10.1002/anie.202211358).

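The test is a small-molecule microarray: each compound is printed twice on a reactive slide, and binding shows as fluorescence of the labelled oligonucleotide after washing. For the PreQ1, TPP and SAM-II riboswitches the laboratory earlier reported (doi:10.1038/s41467-019-09493-3) 1 µM RNA, 2 h, and a rule that included a mean Z-score above 3 (spot signal-to-noise against the whole library), a score well above that on a control array, and duplicate spots agreeing (coefficient of variation under 100). The data file gives only the calls; its cut-offs may differ, and compounds hitting several targets are kept. The calls come from the array alone, and fixing a compound to the slide can hide its binding.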
Key: active = hit, inactive = tested without a hit.
The compounds are a random part of those screened.
A target missing from an entry has no call listed here.
A dash means that no call is listed here.

Targets (5′ to 3′):
TPP: TPP riboswitch RNA three-way junction, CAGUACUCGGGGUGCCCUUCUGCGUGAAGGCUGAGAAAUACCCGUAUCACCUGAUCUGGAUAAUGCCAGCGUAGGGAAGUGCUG. Hit rate about 0.7% of about 24,000 compounds.
PreQ1: PreQ1 riboswitch RNA pseudoknot, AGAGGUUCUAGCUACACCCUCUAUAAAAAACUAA. From B. subtilis. Hit rate about 0.7% of about 24,000 compounds.
SAM-II: SAM-II riboswitch RNA pseudoknot, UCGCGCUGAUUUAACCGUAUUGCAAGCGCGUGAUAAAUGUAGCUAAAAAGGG. Hit rate about 1% of about 21,000 compounds.

| # | Compound | TPP | PreQ1 | SAM-II |
|---|---|---|---|---|
| 1 | `COc1ccccc1-n1cc(-c2ccccc2)c2c(NCCCN3CCOCC3)ncnc21` | inactive | inactive | - |
| 2 | `O=C(c1cccc(Cn2cccn2)c1)N1CCc2c([nH]n(CCO)c2=O)C1` | inactive | inactive | inactive |
| 3 | `O=C(NC(Nc1cccc(Cl)c1Cl)C(Cl)(Cl)Cl)c1cccs1` (stereo not drawn) | inactive | inactive | inactive |
| 4 | `CCc1ccccc1Nc1nc(C)nc2c1CCC2` | inactive | inactive | - |
| 5 | `Cc1cc(C)c(C(N)=O)c(Nc2ccc(Cl)cc2)n1` | inactive | inactive | inactive |
| 6 | `NS(=O)(=O)c1ccc(CCNCc2cccs2)cc1` | inactive | inactive | inactive |
| 7 | `COc1ccc([C@@H]2C[C@H](c3ccc(C(C)C)cc3)n3nc(N)nc3N2)cc1` | inactive | inactive | inactive |
| 8 | `CCn1c(N)nc2cc(C(=O)NCCc3cn4nc(C)sc4n3)cnc21` | inactive | inactive | inactive |
| 9 | `Cc1ccc(NS(=O)(=O)c2cc(Br)cnc2N)cc1C` | inactive | inactive | - |
| 10 | `Nc1ccc2oc(C(F)(F)F)cc(=O)c2c1` | inactive | inactive | inactive |
| 11 | `Cc1cccc(C)c1OCC(O)CN1CCN(c2ccccc2)CC1` (stereo not drawn) | inactive | inactive | inactive |
| 12 | `CCN(C(=O)c1c(O)c2c(Cl)cccc2n(C)c1=O)c1ccccc1` | inactive | inactive | inactive |
| 13 | `COc1ccc2c(C(O)CN3CCC(C)CC3)c[nH]c2c1` (stereo not drawn) | inactive | inactive | - |
| 14 | `OC(COc1ccccc1Cl)Cn1cnc2ccccc21` (stereo not drawn) | inactive | inactive | inactive |
| 15 | `CCN(CC)S(=O)(=O)c1ccc(-c2csc(Nc3ccccc3OC)n2)cc1` | inactive | inactive | inactive |
| 16 | `CCCc1cc(Nc2cccc(C(=O)N3CCC(C)CC3)c2)n2nc(-c3cccnc3)nc2n1` | inactive | inactive | - |
| 17 | `Cc1ccccc1C1CCCN(C(=O)c2cn(CCN3CCNCC3)nn2)C1` (stereo not drawn) | inactive | inactive | inactive |
| 18 | `NC(=O)[C@H](Cc1ccc(O)cc1)NC1CCN(c2ncnc3[nH]cnc23)CC1` | inactive | inactive | inactive |
| 19 | `CSCc1ccc(C(=O)N2C[C@@H](CN(C)C)[C@@H](CO)C2)o1` | inactive | inactive | inactive |
| 20 | `Cc1cccc(-c2cc(Nc3ccc(C)c(C)c3)nc(C)n2)c1` | inactive | inactive | - |
| 21 | `CCC(C)Nc1oc(-c2ccc(S(=O)(=O)N3CCCCCC3)cc2)nc1C#N` (stereo not drawn) | inactive | inactive | - |
| 22 | `Cc1c(CO)cccc1NC(=O)c1ccc(CN2C[C@@H](C)O[C@@H](C)C2)cc1` | inactive | inactive | inactive |
| 23 | `CCOC(=O)c1ccccc1NC1c2ccccc2C(=O)N1c1ccc(Cl)cc1` (stereo not drawn) | inactive | inactive | inactive |
| 24 | `Clc1ccccc1-c1nc(-c2ccncc2)no1` | inactive | inactive | inactive |
| 25 | `NC(=O)CCn1cc(CNCCCOc2cccnc2)c2ccccc21` | inactive | inactive | inactive |
| 26 | `O=C1c2ccccc2C(=O)C1C1=Nc2ccccc2NC(c2ccccc2)C1` (stereo not drawn) | inactive | inactive | inactive |
| 27 | `CCOCC(O)CS(=O)(=O)c1ccccn1` (stereo not drawn) | inactive | inactive | inactive |
| 28 | `Cc1cc(N2CCN(CCO)CC2)n2ncc(-c3ccccc3)c2n1` | inactive | inactive | - |
| 29 | `COc1ccccc1N1CCN(CC(O)c2c(C)[nH]c3c(C)cccc23)CC1` (stereo not drawn) | inactive | inactive | - |
| 30 | `Cn1c(=O)c2c(-c3ccccc3F)n(-c3ccccc3N)cc2n(C)c1=O` | inactive | inactive | active |
| 31 | `CC(C)(C)CNC(=O)c1[nH]cnc1C(=O)N1CCCC(CO)C1` (stereo not drawn) | inactive | inactive | - |
| 32 | `COc1cccc(-n2nnc(-c3nc(-c4ccc(F)cc4)no3)c2N)c1` | inactive | inactive | - |
| 33 | `CN(CC1(CO)CCCC1)c1nnc(C2CCC2)o1` | inactive | inactive | inactive |
| 34 | `CCc1cnc(C)nc1N1CCC(N[C@@H]2C[C@@H]3CC[C@H]2C3)CC1` | inactive | inactive | inactive |
| 35 | `Cc1ccc(NC(=O)CCc2c(C)nc3nc(CN)nn3c2C)cc1F` | inactive | inactive | - |
| 36 | `CC(O)CCC(=O)NCCc1nc2ccccc2n1Cc1ccc(Cl)cc1` (stereo not drawn) | inactive | inactive | - |
| 37 | `Cc1ncc(C(=O)N2CCNC(C(=O)O)C2)c(-c2ccccc2)n1` (stereo not drawn) | inactive | inactive | inactive |
| 38 | `Cc1nc(-n2nc(C)c(Cc3ccc(Cl)cc3)c2C)sc1C(=O)N1CCN(CCO)CC1` | inactive | inactive | - |
| 39 | `CCOC(=O)C1(C)C=C(Nc2ccc(C(=O)O)cc2)C(=O)N1c1ccccc1` (stereo not drawn) | inactive | inactive | inactive |
| 40 | `OCc1ccc(-c2nccn2-c2cccc(-n3cncn3)c2)o1` | inactive | inactive | inactive |
| 41 | `CN(C)CCC=C1c2ccccc2COc2ccc(CC(=O)O)cc21` | inactive | inactive | inactive |
| 42 | `O=C(NCC1CNCCOC1)Nc1cccc(-c2ccc(F)cc2)c1` (stereo not drawn) | inactive | inactive | active |
| 43 | `Cn1c(=O)c2c(nc(NCC3CCCO3)n2Cc2ccc(Br)cc2)n(C)c1=O` (stereo not drawn) | inactive | inactive | inactive |
| 44 | `CN(Cc1ncc[nH]1)c1nccc(N2CCC(O)C2)n1` (stereo not drawn) | inactive | inactive | inactive |
| 45 | `N#Cc1cccnc1N1CCN(c2cc(N3CCCC3)nc(N)n2)CC1` | inactive | inactive | inactive |
| 46 | `CCOc1cc2c(cc1C1NCCc3[nH]cnc31)CCC2` (stereo not drawn) | inactive | inactive | inactive |
| 47 | `CCOc1ncccc1CNCC(=O)Nc1cccc(F)c1C` | inactive | inactive | inactive |
| 48 | `Cc1cccc(CNCCc2c[nH]c3ccccc23)c1` | inactive | inactive | inactive |
| 49 | `Cc1ccc(NC(NC=O)C(Cl)(Cl)Cl)c(C)c1` (stereo not drawn) | inactive | inactive | inactive |
| 50 | `O=C(NCc1ccc(-c2ccccc2)o1)[C@H]1CNC[C@H](C(=O)N2CCOCC2)C1` | inactive | inactive | inactive |
| 51 | `COc1ccccc1NC1CCCCC1NS(=O)(=O)c1ccc(C)cc1` (stereo not drawn) | inactive | inactive | - |
| 52 | `C=CCNc1cc(C(C)C)nc2nc(-c3cccnc3)nn12` | inactive | inactive | - |
| 53 | `O=c1c2cnc3ncnn3c2ccn1CCO` | inactive | inactive | - |
| 54 | `O=C(NCc1ccoc1)[C@@]12CNC[C@@H]1CN(Cc1ccccc1)C2` | inactive | inactive | inactive |
| 55 | `O[C@@H]1CN(c2ncccn2)CC[C@H]1N1CCN(CCc2ccccc2)CC1` | inactive | inactive | inactive |
| 56 | `O=C(c1cccc(CC2CCNCC2)c1)N1CCC(Nc2ncccn2)CC1` | inactive | inactive | inactive |
| 57 | `O=C1c2ccccc2C(Nc2ccccc2F)N1Cc1ccccc1Cl` (stereo not drawn) | inactive | inactive | inactive |
| 58 | `Cc1cc(C)c2c(N)c(C(=O)Nc3ccc(Cl)cc3)sc2n1` | inactive | inactive | inactive |
| 59 | `Cc1cc(Nc2ccc(C(=O)N3CCC(C)CC3)cc2)n2nc(-c3cccnc3)nc2n1` | inactive | inactive | - |
| 60 | `COC(=O)[C@@H](Nc1nc(C2CCCC2)nc2c1cnn2C)[C@@H](C)O` | inactive | inactive | inactive |
| 61 | `Cc1ccc(C(=O)N(CCCN)[C@@H](c2oc3cc(Cl)ccc3c(=O)c2Cc2ccccc2)C(C)C)cc1` | inactive | inactive | inactive |
| 62 | `N#CC1=C(N)Oc2c(oc(CO)cc2=O)C1c1c(F)cccc1Cl` (stereo not drawn) | inactive | inactive | inactive |
| 63 | `CCNc1cc(C(=O)O)cc([N+](=O)[O-])c1` | inactive | inactive | inactive |
| 64 | `O=C(Oc1ccc([N+](=O)[O-])cc1)N1CCC(C(O)(c2ccc3c(c2)OCO3)c2ccc3c(c2)OCO3)CC1` | inactive | inactive | inactive |
| 65 | `COCC(C)NCCc1c(OC)ccc2ccccc12` (stereo not drawn) | inactive | inactive | inactive |
| 66 | `CSCCc1c(-c2ccccc2)ncn1CCNc1cccnc1` | inactive | inactive | inactive |
| 67 | `COc1ccc(-c2c(C)nn3c(NCCN4CCCC4)cc(C)nc23)cc1OC` | inactive | inactive | inactive |
| 68 | `CCOc1ccc(NC(c2ccccc2)c2nnc(-c3ccccc3)o2)cc1` (stereo not drawn) | inactive | inactive | inactive |
| 69 | `CSc1nc2c(c(Nc3cccc(O)c3)n1)CCC2` | inactive | inactive | - |
| 70 | `CC[C@H](C)C(=O)O[C@H]1C[C@@H](C)C=C2C=C[C@H](C)[C@H](CC[C@@H]3C[C@@H](O)CC(=O)O3)[C@H]21` | inactive | inactive | inactive |
| 71 | `Cc1ccc(NC(=O)Nc2ccccc2C(N)=O)cc1` | inactive | inactive | inactive |
| 72 | `COc1cccc([C@@H]2CCN(Cc3sccc3C)C[C@H]2O)c1` | inactive | inactive | inactive |
| 73 | `c1ccc(-c2cc(NCCN3CCOCC3)n3c(n2)nc2ccccc23)cc1` | inactive | inactive | - |
| 74 | `O=S(=O)(c1ccccc1)c1nc(-c2ccccc2F)oc1NCC1CCCO1` (stereo not drawn) | inactive | inactive | - |
| 75 | `Cc1ccc(NC(C)(C(=O)NCCCc2nnn[nH]2)c2ccccc2)cc1` (stereo not drawn) | inactive | inactive | inactive |

5 of the entries, repeated:

* COc1ccc2c(C(O)CN3CCC(C)CC3)c[nH]c2c1 (stereo not drawn) | TPP: inactive; PreQ1: inactive
* Cc1ccc(NC(=O)CCc2c(C)nc3nc(CN)nn3c2C)cc1F | TPP: inactive; PreQ1: inactive
* COc1ccccc1NC1CCCCC1NS(=O)(=O)c1ccc(C)cc1 (stereo not drawn) | TPP: inactive; PreQ1: inactive
* O=C(NCC1CNCCOC1)Nc1cccc(-c2ccc(F)cc2)c1 (stereo not drawn) | TPP: inactive; PreQ1: inactive; SAM-II: active
* CCNc1cc(C(=O)O)cc([N+](=O)[O-])c1 | TPP: inactive; PreQ1: inactive; SAM-II: inactive